The values that follow come from patent US20260250737A1, “Engineered Luciferases and Luciferin Substrates” (Monod Bio, Inc., priority 2023, published 2026).

No constants are given. Whether binding was seen depends on the method and setting. Some entries that bind do so weakly or less than the wild type.

The target in this assay is T1, MBIO-4039 large fragment, SEQ ID NO:2733.
T1 sequence: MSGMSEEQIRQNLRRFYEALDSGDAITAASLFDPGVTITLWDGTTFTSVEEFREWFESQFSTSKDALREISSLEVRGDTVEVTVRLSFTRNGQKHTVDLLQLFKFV
As to the kind of experiment: split-luciferase complementation of MBIO-4039 fragments.

MSGGNRVVAVRVYVNPT [MBIO-4039 small fragment, SEQ ID NO:2734]: the binding entry is “binds”.
